Results are given in words; binding and its absence hold for the method and conditions named. In cells and extracts the contact can be indirect. Some entries that bind do so weakly or less than the wild type. Tags and fused reporters may be left off the sequences shown.
T1: AtSAP5 fused with the N terminus of luciferase (Arabidopsis) (UniProt Q9LHJ8)
T1 sequence: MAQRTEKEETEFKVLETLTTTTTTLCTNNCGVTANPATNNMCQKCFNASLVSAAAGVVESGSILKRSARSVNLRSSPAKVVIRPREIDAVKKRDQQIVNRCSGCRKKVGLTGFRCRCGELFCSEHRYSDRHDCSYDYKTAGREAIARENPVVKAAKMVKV

T2: AtSAP5 fused with the C terminus of yellow fluorescent protein (Arabidopsis) (UniProt Q9LHJ8)
T2 sequence: T1 sequence

B1: CAT2 fused with the C terminus of luciferase (enzyme, UniProt P25819 1-492)
chain: MDPYKYRPASSYNSPFFTTNSGAPVWNNNSSMTVGPRGPILLEDYHLVEKLANFDRERIPERVVHARGASAKGFFEVTHDISNLTCADFLRAPGVQTPVIVRFSTVIHERGSPETLRDPRGFAVKFYTREGNFDLVGNNFPVFFIRDGMKFPDMVHALKPNPKSHIQENWRILDFFSHHPESLNMFTFLFDDIGIPQDYRHMDGSGVNTYMLINKAGKAHYVKFHWKPTCGVKSLLEEDAIRVGGTNHSHATQDLYDSIAAGNYPEWKLFIQIIDPADEDKFDFDPLDVTKTWPEDILPLQPVGRMVLNKNIDNFFAENEQLAFCPAIIVPGIHYSDDKLLQTRVFSYADTQRHRLGPNYLQLPVNAPKCAHHNNHHEGFMNFMHRDEEVNYFPSRYDQVRHAEKYPTPPAVCSGKRERCIIEKENNFKEPGERYRTFTPERQERFIQRWIDALSDPRITHEIRSIWISYWSQADKSLGQKLASRLNVRPSI
B2: CAT2 fused with the N terminus of YFP (enzyme, UniProt P25819 1-492)
chain: B1 chain

Assays:
[1] = biological target: T1, AtSAP5 fused with the N terminus of luciferase (Arabidopsis); assay: split reporter
[2] = biological target: T2, AtSAP5 fused with the C terminus of yellow fluorescent protein (Arabidopsis); assay: split reporter

Binder | binding [1] | binding [2]
B1 | binds | –
B2 | – | binds
